# Experimental data: PubChem BioAssay AID1224830 (NIAID, 2016)
# Screen: 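Genes whose knock-down alters the TNF-alpha reporter response to LPS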 (primary screen)
# Cells: human THP-1 monocytic leukaemia cells, TNF dual-luciferase reporter clone, PMA-differentiated to macrophage-like cells
# Reagent: siRNA pool against human genes, 50 nM
# Duration: LPS for 4 h, given about 3 days after siRNA transfection
# Conditions: bacterial LPS (TLR4 ligand), 10 ng/ml
# Measurement: 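TNF firefly reporter luminescence divided by renilla, normalised to the plate median, then turned into a robust z-score for each replicate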
# Reading the numbers: TNF reporter robust z-score: higher = stronger TNF reporter response to LPS
# Rule for the call: 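a well is active when its z-score exceeds 2.8 or falls below -1.5; control wells carry no call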
# This is one part, drawn at random, of about 18,000 reagents. In the full data, about 2,900 (16%) were called active. 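Calls are made per well; low scores hint the gene aids the LPS response, high scores that it dampens it.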 Repeated entries: four replicate wells of each siRNA pool.
target,TNF reporter robust z-score,Outcome
DEUP1 (GeneID 159989),-0.12,inactive
DEUP1 (GeneID 159989),0.26,inactive
DEUP1 (GeneID 159989),0.1,inactive
DEUP1 (GeneID 159989),-0.35,inactive
CFTR (GeneID 1080),-0.73,inactive
CFTR (GeneID 1080),-0.78,inactive
CFTR (GeneID 1080),-0.53,inactive
CFTR (GeneID 1080),0.13,inactive
NCAPG2 (GeneID 54892),0.24,inactive
NCAPG2 (GeneID 54892),5.46,active
NCAPG2 (GeneID 54892),8.3,active
NCAPG2 (GeneID 54892),0.88,inactive
DCAF4 (GeneID 26094),-0.42,inactive
DCAF4 (GeneID 26094),-1.39,inactive
DCAF4 (GeneID 26094),0.35,inactive
DCAF4 (GeneID 26094),-0.05,inactive
TMEM229B (GeneID 161145),-1.35,inactive
TMEM229B (GeneID 161145),-0.94,inactive
TMEM229B (GeneID 161145),-1.17,inactive
TMEM229B (GeneID 161145),-1.39,inactive
ZNF284 (GeneID 342909),0.02,inactive
ZNF284 (GeneID 342909),0.67,inactive
ZNF284 (GeneID 342909),0.39,inactive
ZNF284 (GeneID 342909),-0.03,inactive
TMT1B (GeneID 196410),0.11,inactive
TMT1B (GeneID 196410),0.24,inactive
TMT1B (GeneID 196410),0.47,inactive
TMT1B (GeneID 196410),1.9,inactive
ANAPC7 (GeneID 51434),-0.36,inactive
ANAPC7 (GeneID 51434),-0.22,inactive
ANAPC7 (GeneID 51434),0.22,inactive
ANAPC7 (GeneID 51434),-0.57,inactive
LCN10 (GeneID 414332),-1.66,active
LCN10 (GeneID 414332),0.42,inactive
LCN10 (GeneID 414332),-0.47,inactive
LCN10 (GeneID 414332),1.65,inactive
A4GNT (GeneID 51146),-0.8,inactive
A4GNT (GeneID 51146),-1.19,inactive
A4GNT (GeneID 51146),-0.48,inactive
A4GNT (GeneID 51146),0.09,inactive
HMG20B (GeneID 10362),0.98,inactive
HMG20B (GeneID 10362),1.9,inactive
HMG20B (GeneID 10362),1.58,inactive
HMG20B (GeneID 10362),0.97,inactive
FBXL16 (GeneID 146330),3,active
FBXL16 (GeneID 146330),5.69,active
FBXL16 (GeneID 146330),3.17,active
FBXL16 (GeneID 146330),2.32,inactive
